Results as given in PMC12631847.
Positions count from the first letter of the chain named. These are yes or no findings as the source states them, for the method shown. Binding seen in cells or lysates may run through a third protein. Some binding calls cover weakened binding; strength is not graded here. Sequences can lack the tags named with a protein.

Chains of the proteins cited; added tags and fusions are not shown.
UniProt Q9H3P7: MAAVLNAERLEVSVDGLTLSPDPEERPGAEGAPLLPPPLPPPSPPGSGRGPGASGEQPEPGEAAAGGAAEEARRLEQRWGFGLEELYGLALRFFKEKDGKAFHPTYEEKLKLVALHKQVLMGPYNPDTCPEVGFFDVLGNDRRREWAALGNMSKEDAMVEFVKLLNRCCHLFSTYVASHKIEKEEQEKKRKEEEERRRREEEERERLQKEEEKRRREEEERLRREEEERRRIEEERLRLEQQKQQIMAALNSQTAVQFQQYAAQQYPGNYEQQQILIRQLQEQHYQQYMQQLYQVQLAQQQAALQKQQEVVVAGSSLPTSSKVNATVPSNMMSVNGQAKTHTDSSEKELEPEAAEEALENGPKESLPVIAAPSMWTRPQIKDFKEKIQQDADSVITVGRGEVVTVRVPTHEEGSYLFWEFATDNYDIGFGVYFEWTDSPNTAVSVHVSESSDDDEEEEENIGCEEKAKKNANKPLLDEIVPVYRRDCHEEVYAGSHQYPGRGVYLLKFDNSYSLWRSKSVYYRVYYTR

What was measured:
[1] = molecular target: T1, HA-TBC1D22B (human) (UniProt Q9NU19); assay: co-IP; BT549 lysates (Pierce buffer: 25 mM Tris HCl pH 7.4, 150 mM NaCl, 1 mM EDTA, 1% NP-40, 5% glycerol), 2.5 mg on anti-HA magnetic beads, 30 min RT; immunoblot
T1 sequence: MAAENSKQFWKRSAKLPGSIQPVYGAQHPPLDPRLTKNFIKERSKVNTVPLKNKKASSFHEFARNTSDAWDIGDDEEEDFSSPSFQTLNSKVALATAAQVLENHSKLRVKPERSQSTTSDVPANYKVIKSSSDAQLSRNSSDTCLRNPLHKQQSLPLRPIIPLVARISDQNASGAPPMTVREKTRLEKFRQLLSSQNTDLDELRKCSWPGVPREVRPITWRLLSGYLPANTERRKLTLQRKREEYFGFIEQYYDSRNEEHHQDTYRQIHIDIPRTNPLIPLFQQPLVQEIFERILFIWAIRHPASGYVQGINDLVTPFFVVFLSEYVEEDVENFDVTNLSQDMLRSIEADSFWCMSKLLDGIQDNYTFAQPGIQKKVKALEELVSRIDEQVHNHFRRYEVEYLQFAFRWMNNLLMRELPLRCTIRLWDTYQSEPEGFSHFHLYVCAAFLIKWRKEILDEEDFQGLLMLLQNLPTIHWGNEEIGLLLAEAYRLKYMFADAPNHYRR

[2] = molecular target: T2, HA-TBC1D22B-RQ (human) (UniProt Q9NU19); assay: as above
T2 sequence: T1 sequence with R274A, Q309A

## EGFR (from UniProt P00533 25-1210) (receptor)
[1]
  binding: binds
[2]
  binding: binds

## Acyl-CoA binding domain containing 3 (ACBD3) (from UniProt Q9H3P7 1-528)
[1]
  binding: binds
[2]
  binding: binds
